Reference: paper PMC7845594, “Novel Immune Modulators Enhance Caenorhabditis elegans Resistance to Multiple Pathogens” (mSphere, 2021)
Further values from the same series stand in other lists.

System: C. elegans transcriptome
Assay: Transcriptome profiling (Affymetrix microarrays), differentially expressed genes
Type: in vivo, Caenorhabditis elegans
Details: downregulated genes
Protocol: To gain additional insight into the effect of LK molecules on C. elegans, young-adult, wild-type worms were treated with each drug at 100 µM for 8 h in the absence of pathogen. RNA was collected, and transcriptome profiling was performed.
Data were determined using Affymetrix microarrays, as described in Materials and Methods. Download Table S3, XLSX file, 0.07 MB.
Transcriptome profiling was performed on ∼6,000 wild-type, young adult worms incubated with either LK molecules or DMSO for 8 h. RNA isolation was performed using TRIzol extraction, followed by cleanup using RNeasy columns according to the manufacturer’s protocol. Each condition was analyzed in triplicate. Microarray data have been deposited in the GEO database, accession number GSE137516. […] Clustering and generation of the heat map was performed using Cluster 3.0 ([98]) and Treeview ([99]), respectively. Fold change of genes were normalized to average fold change of that gene over all clustered conditions. Genes and conditions were clustered using Euclidean distance and average linkages. […] Microarray data for non-LK molecules were collected from GEO omnibus. WormEXP was used as a secondary method for confirming statistical significance of potential pathways stimulated by each of the LK molecules ([100]). Gene ontologies were generated using DAVID ([101], [102]).

CCN(CC)/N=N/c1ccc(C(=O)O)cc1 [LK35]
Fold Change (Affy_ID 192118_s_at, listed under gene F10C1.7 (LK34, LK35) or F10C1.8 (LK38)): 0.248 | Fold Change (Affy_ID 194255_x_at, listed under gene F22A3.6 (LK34, LK35) or C68743 (LK38)): 0.4882 | Fold Change (Gene B0218.1, Affy_ID 188358_at): 0.1589 | Fold Change (Gene B0228.7, Affy_ID 187261_s_at): 0.4481 | Fold Change (Gene B0379.1, Affy_ID 179086_s_at): 0.2396 | Fold Change (Gene B0507.8, Affy_ID 180569_at): 0.1901 | Fold Change (Gene C01B10.1, Affy_ID 185299_s_at): 0.4121 | Fold Change (Gene F08G2.2, Affy_ID 172835_x_at): 0.36 | Fold Change (Gene F08G2.3, Affy_ID 172899_x_at): 0.3757 | Fold Change (Gene F08G2.4, Affy_ID 178720_at): 0.4426 | Fold Change (Gene F08H9.7, Affy_ID 189904_at): 0.3207 | Fold Change (Gene F08H9.8, Affy_ID 189993_at): 0.1341 | Fold Change (Gene F09C12.7, Affy_ID 172687_x_at): 0.2585 | Fold Change (Gene F10G7.5, Affy_ID 180083_at): 0.4289 | Fold Change (Gene F11E6.3, Affy_ID 179439_s_at): 0.3249 | Fold Change (Gene F11G11.8, Affy_ID 172546_x_at): 0.3727 | Fold Change (Gene F13B6.3, Affy_ID 180766_at): 0.1108 | Fold Change (Gene F13H8.7, Affy_ID 191583_s_at): 0.4113 | Fold Change (Gene F16F9.4, Affy_ID 188201_at): 0.4466 | Fold Change (Gene F17C11.2, Affy_ID 181257_at): 0.3748 | Fold Change (Gene F17C11.4, Affy_ID 180312_at): 0.2244 | Fold Change (Gene F17E9.9, Affy_ID 172851_x_at): 0.3215 | Fold Change (Gene F20A1.1, Affy_ID 172426_x_at): 0.3786 | Fold Change (Gene F20D6.5, Affy_ID 182519_at): 0.1457 | Fold Change (Gene F22B7.9, Affy_ID 187282_at): 0.4235 | Fold Change (Gene F23B2.11, Affy_ID 191274_s_at): 0.2539 | Fold Change (Gene F25E5.8, Affy_ID 183125_at): 0.3588 | Fold Change (Gene F26A3.4, Affy_ID 191521_s_at): 0.2161 | Fold Change (Gene F26G1.7, Affy_ID 172882_x_at): 0.1768 | Fold Change (Gene F27C8.4, Affy_ID 179424_at): 0.4279 | Fold Change (Gene F28H1.2, Affy_ID 188459_s_at): 0.3051 | Fold Change (Gene F32B6.6, Affy_ID 172854_x_at): 0.1826 | Fold Change (Gene F32G8.6, Affy_ID 190591_at): 0.1491 | Fold Change (Gene F36D3.9, Affy_ID 189469_at): 0.03478 | Fold Change (Gene F37A8.4, Affy_ID 188068_at): 0.0772 | Fold Change (Gene F38A3.1, Affy_ID 188281_s_at): 0.1574 | Fold Change (Gene F38E9.1, Affy_ID 180768_at): 0.3492 | Fold Change (Gene F38E11.2, Affy_ID 192323_at): 0.1463 | Fold Change (Gene F40F8.7, Affy_ID 192333_at): 0.4317 | Fold Change (Gene F41B4.1, Affy_ID 175917_at): 0.3724 | Fold Change (Gene F43C11.7, Affy_ID 186263_at): 0.2993 | Fold Change (Gene F44C8.3, Affy_ID 192777_at): 0.479 | Fold Change (Gene F44C8.8, Affy_ID 189999_at): 0.1733 | Fold Change (Gene F44D12.5, Affy_ID 172333_x_at): 0.1411 | Fold Change (Gene F44D12.7, Affy_ID 172327_x_at): 0.09874 | Fold Change (Gene F45D11.15, Affy_ID 186801_s_at): 0.3181 | Fold Change (Gene F45E4.8, Affy_ID 183438_s_at): 0.2609 | Fold Change (Gene F45F2.12, Affy_ID 172874_x_at): 0.4821 | Fold Change (Gene F47B10.2, Affy_ID 191301_s_at): 0.1104 | Fold Change (Gene F48G7.10, Affy_ID 184636_at): 0.03006 | Fold Change (Gene F49E2.2, Affy_ID 179120_s_at): 0.4547 | Fold Change (Gene F49E12.10, Affy_ID 190009_at): 0.03479 | Fold Change (Gene F52H3.7, Affy_ID 192849_s_at): 0.3536 | Fold Change (Gene F53A9.6, Affy_ID 172363_x_at): 0.2854
